In the supplement of paper PMC12595434, “Development of retinoid nuclear receptor pathway antagonists through targeting aldehyde dehydrogenase 1A3” (iScience, 2025):
Some of the results follow. The data scatter; read single values as rough.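 Many melting curves are irregular; where none melted, Tm was taken as 64 °C.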

Sequences of proteins named here, by UniProt entry; tags and fusion partners are left off. A change or cut given only in a name is not applied to a line headed by its entry.
UniProt Q9NP79: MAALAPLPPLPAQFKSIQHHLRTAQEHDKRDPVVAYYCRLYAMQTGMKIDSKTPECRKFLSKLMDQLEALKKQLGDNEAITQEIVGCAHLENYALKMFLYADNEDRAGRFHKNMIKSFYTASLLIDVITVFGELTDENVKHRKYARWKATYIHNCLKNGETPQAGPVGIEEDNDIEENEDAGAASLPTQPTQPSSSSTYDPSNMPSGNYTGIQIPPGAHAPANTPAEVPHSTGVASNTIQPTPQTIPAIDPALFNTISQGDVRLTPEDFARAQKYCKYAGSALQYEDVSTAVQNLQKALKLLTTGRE
UniProt Q9NUX5: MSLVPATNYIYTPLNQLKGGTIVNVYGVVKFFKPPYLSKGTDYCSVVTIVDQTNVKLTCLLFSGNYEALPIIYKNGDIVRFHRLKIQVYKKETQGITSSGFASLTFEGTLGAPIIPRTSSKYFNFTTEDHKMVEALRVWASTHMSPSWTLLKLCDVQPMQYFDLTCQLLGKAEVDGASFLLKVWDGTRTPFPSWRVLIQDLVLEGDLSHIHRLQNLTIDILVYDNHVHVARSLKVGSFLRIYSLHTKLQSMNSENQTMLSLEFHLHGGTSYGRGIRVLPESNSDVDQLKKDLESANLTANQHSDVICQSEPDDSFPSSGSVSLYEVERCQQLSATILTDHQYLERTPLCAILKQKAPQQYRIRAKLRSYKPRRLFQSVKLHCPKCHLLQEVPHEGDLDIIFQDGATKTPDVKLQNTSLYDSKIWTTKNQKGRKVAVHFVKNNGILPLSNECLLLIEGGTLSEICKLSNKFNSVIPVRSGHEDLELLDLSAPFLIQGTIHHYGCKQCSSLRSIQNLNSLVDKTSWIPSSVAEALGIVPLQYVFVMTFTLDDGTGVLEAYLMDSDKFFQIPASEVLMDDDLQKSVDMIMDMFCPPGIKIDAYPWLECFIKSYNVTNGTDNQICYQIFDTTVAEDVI
UniProt Q9HCN8: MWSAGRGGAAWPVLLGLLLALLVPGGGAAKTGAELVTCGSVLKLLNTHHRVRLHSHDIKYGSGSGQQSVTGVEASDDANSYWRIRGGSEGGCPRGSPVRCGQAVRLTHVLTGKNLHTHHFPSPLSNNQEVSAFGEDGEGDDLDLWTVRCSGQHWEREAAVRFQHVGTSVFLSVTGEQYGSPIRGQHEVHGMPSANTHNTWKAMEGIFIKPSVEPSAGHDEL
UniProt Q9NSK0: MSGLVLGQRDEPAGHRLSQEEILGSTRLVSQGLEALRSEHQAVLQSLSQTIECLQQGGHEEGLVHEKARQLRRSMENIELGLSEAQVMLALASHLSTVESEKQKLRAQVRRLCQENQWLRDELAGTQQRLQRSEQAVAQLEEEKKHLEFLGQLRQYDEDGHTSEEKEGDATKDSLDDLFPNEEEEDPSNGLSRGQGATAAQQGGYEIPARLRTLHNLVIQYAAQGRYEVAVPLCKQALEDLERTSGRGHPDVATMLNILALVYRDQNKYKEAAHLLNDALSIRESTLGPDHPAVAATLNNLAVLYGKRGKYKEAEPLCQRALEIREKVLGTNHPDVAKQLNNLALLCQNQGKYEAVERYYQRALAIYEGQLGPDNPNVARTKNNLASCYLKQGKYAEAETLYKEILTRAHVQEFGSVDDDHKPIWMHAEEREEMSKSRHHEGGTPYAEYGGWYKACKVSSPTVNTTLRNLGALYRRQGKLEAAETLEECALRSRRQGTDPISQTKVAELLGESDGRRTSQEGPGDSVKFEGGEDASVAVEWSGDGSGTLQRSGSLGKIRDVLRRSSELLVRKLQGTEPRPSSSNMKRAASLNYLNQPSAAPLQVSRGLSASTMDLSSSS
UniProt Q9HBM1: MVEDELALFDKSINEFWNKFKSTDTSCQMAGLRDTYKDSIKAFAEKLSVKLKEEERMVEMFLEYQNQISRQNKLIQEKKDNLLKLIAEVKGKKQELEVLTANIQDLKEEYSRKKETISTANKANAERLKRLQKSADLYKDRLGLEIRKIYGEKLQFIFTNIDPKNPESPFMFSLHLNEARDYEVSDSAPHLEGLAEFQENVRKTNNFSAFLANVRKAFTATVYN
UniProt Q9NS91, whole entry: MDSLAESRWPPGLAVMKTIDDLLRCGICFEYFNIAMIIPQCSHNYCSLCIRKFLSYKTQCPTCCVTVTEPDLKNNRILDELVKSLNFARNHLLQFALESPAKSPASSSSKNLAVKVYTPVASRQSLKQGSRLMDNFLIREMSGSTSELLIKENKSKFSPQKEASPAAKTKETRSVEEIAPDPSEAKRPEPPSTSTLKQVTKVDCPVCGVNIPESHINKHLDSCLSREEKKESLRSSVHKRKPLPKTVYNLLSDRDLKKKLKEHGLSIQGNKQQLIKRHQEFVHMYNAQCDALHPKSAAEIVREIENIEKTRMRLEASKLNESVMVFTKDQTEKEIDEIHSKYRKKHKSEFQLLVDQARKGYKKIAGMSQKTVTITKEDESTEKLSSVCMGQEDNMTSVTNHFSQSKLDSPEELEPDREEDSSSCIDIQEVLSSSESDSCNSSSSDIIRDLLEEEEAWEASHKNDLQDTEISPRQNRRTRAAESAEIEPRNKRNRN
UniProt Q9NRD5, whole entry: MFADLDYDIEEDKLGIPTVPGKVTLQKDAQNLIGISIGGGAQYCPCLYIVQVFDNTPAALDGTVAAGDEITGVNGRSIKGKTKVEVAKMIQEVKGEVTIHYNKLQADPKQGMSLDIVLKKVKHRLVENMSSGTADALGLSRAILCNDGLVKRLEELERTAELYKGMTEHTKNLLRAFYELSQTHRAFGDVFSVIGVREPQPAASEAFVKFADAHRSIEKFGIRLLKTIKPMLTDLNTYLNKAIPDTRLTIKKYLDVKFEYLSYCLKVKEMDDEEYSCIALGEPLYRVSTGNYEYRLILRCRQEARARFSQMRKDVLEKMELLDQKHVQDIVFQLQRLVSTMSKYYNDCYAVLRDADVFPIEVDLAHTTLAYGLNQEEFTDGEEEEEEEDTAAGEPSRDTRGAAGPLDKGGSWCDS
UniProt Q9H9Y2: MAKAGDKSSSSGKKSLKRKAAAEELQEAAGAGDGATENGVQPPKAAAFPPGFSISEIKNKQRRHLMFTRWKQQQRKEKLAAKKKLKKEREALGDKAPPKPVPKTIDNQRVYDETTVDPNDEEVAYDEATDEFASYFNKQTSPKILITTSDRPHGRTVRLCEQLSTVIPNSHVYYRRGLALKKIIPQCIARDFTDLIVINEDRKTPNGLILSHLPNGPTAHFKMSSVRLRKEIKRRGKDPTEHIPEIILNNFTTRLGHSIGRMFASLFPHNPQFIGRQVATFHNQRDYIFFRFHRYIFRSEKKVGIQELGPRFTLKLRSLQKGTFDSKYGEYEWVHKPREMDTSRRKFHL
UniProt Q9HC36: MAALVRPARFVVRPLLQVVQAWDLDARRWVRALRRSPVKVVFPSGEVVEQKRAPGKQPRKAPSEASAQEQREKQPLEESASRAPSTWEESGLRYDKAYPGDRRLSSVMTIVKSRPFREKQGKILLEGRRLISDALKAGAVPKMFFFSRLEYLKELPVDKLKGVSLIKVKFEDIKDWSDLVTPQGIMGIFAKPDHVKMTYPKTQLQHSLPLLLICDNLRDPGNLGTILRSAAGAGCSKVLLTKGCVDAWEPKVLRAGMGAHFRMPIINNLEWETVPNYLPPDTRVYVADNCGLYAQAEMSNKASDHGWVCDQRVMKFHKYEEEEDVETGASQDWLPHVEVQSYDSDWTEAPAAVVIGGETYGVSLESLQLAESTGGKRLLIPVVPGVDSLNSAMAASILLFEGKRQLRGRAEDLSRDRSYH
UniProt Q9NNX1: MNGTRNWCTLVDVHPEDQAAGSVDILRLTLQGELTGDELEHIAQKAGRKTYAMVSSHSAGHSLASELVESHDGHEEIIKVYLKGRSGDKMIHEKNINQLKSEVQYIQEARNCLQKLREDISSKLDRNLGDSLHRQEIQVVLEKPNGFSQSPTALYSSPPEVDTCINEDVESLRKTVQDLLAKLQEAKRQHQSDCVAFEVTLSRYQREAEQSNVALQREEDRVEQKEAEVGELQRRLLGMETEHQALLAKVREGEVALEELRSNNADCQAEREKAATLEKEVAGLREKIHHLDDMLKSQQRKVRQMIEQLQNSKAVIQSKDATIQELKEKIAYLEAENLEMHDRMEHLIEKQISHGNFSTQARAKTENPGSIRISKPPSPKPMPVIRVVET
UniProt Q9H993: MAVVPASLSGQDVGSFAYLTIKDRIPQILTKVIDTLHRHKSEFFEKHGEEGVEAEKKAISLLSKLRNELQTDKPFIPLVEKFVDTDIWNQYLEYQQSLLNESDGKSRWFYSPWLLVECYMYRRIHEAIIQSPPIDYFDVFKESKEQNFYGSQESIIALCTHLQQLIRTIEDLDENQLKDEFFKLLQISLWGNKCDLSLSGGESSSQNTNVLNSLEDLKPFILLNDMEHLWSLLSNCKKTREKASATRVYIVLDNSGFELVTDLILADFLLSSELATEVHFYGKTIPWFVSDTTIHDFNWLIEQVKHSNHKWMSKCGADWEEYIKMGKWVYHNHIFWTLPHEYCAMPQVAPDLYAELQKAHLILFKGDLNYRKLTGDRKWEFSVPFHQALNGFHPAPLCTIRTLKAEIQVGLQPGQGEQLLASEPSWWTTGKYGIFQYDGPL
UniProt Q9NRY4: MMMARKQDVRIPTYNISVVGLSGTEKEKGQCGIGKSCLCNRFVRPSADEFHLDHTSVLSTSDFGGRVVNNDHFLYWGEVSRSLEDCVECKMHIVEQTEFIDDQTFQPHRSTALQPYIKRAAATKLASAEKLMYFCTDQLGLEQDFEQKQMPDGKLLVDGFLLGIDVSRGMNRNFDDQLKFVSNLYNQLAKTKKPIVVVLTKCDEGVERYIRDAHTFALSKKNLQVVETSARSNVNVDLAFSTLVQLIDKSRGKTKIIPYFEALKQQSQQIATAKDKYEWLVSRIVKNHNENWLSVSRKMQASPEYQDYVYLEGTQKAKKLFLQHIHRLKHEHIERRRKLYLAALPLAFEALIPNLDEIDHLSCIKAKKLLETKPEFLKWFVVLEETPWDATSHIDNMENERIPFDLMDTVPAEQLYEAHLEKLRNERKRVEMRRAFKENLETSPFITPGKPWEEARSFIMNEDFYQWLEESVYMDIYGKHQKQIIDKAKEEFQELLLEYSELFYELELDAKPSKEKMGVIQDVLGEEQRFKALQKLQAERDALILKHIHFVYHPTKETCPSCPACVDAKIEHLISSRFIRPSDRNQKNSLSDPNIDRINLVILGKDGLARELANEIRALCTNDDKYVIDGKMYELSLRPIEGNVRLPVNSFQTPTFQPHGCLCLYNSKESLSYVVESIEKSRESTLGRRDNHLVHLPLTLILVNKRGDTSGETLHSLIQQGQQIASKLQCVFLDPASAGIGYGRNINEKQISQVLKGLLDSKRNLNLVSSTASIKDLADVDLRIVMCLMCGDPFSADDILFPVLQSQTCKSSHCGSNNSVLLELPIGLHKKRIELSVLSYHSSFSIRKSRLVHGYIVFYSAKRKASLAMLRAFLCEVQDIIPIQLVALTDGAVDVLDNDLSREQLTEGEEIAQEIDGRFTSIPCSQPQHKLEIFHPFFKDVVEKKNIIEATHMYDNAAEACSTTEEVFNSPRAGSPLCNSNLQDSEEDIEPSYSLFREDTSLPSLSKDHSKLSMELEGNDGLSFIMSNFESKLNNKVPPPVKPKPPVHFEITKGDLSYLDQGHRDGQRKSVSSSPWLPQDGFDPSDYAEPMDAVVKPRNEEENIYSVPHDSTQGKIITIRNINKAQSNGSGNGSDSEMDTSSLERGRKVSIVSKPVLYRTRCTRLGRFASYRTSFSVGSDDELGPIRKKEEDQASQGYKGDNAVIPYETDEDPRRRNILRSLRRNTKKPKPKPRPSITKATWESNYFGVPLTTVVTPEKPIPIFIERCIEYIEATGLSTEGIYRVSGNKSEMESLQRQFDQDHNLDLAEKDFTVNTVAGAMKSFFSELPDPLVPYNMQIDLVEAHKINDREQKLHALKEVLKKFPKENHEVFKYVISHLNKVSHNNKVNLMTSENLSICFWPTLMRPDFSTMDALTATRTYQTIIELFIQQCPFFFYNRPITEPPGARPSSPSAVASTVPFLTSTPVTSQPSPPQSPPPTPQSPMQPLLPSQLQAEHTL
UniProt Q9HCC0: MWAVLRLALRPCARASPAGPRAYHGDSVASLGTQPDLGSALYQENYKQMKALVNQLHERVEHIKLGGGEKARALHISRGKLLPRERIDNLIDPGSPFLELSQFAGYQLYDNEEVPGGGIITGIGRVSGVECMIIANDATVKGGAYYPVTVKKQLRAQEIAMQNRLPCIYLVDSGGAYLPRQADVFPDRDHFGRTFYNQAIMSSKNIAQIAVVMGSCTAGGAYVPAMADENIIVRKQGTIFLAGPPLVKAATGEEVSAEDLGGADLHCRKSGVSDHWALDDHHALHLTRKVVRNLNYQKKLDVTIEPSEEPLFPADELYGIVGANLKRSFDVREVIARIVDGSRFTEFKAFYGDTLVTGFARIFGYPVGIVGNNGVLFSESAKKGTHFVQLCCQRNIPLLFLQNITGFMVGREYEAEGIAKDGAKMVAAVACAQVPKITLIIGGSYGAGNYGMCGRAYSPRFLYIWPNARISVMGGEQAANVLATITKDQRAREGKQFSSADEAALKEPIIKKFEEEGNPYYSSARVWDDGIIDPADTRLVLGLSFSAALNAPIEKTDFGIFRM

Compound: CCc1cnccc1C(=O)Nc1cc2c(cc1F)NC(=O)CC2
Assay: melting temperature shift (DMSO Tm minus MBE1-treated Tm) in cellular thermal proteome profiling; higher = less thermal stabilization by MBE1 (negative = stabilized by MBE1)
Details: A375

Target: VTA1 (UniProt Q9NP79)
- melting temperature shift (MBE1 concentration: 100 nM): 0.189 °C
- melting temperature shift (MBE1 concentration: 1 uM): -0.311 °C

Target: GPAM (UniProt Q9HCL2)
- melting temperature shift (MBE1 concentration: 100 nM): 0.57 °C
- melting temperature shift (MBE1 concentration: 1 uM): 0.633 °C

Target: MEAF6 (UniProt Q9HAF1)
- melting temperature shift (MBE1 concentration: 100 nM): -0.177 °C
- melting temperature shift (MBE1 concentration: 1 uM): 0.378 °C

Target: UniProt Q9NQC1
- melting temperature shift (MBE1 concentration: 100 nM): -0.444 °C
- melting temperature shift (MBE1 concentration: 1 uM): -0.288 °C

Target: UniProt Q9NUX5
- melting temperature shift (MBE1 concentration: 100 nM): -2.26 °C
- melting temperature shift (MBE1 concentration: 1 uM): 0.122 °C

Target: SDF2L1 (UniProt Q9HCN8)
- melting temperature shift (MBE1 concentration: 100 nM): -0.349 °C
- melting temperature shift (MBE1 concentration: 1 uM): 2.28 °C

Target: BLOC1S4 (UniProt Q9NUP1)
- melting temperature shift (MBE1 concentration: 100 nM): 0.429 °C
- melting temperature shift (MBE1 concentration: 1 uM): 0.773 °C

Target: KLC4 (UniProt Q9NSK0)
- melting temperature shift (MBE1 concentration: 100 nM): 0.226 °C
- melting temperature shift (MBE1 concentration: 1 uM): 2.33 °C

Target: VEZT (UniProt Q9HBM0)
- melting temperature shift (MBE1 concentration: 100 nM): 0.443 °C
- melting temperature shift (MBE1 concentration: 1 uM): 0.348 °C

Target: AVEN (UniProt Q9NQS1)
- melting temperature shift (MBE1 concentration: 100 nM): -0.443 °C
- melting temperature shift (MBE1 concentration: 1 uM): 0.333 °C

Target: IARS2 (UniProt Q9NSE4)
- melting temperature shift (MBE1 concentration: 100 nM): -0.649 °C
- melting temperature shift (MBE1 concentration: 1 uM): 0.769 °C

Target: SPC25 (UniProt Q9HBM1)
- melting temperature shift (MBE1 concentration: 100 nM): 0.861 °C
- melting temperature shift (MBE1 concentration: 1 uM): -0.342 °C

Target: RAD18 (UniProt Q9NS91)
- melting temperature shift (MBE1 concentration: 100 nM): -0.218 °C
- melting temperature shift (MBE1 concentration: 1 uM): -0.493 °C

Target: UniProt Q9NTJ4
- melting temperature shift (MBE1 concentration: 100 nM): -1.66 °C
- melting temperature shift (MBE1 concentration: 1 uM): 0.313 °C

Target: UniProt Q9NRD5
- melting temperature shift (MBE1 concentration: 100 nM): 1.2 °C
- melting temperature shift (MBE1 concentration: 1 uM): 0.366 °C

Target: UniProt Q9H9Y2
- melting temperature shift (MBE1 concentration: 100 nM): 0.0977 °C
- melting temperature shift (MBE1 concentration: 1 uM): 0.641 °C

Target: MRM3 (UniProt Q9HC36)
- melting temperature shift (MBE1 concentration: 100 nM): -0.99 °C
- melting temperature shift (MBE1 concentration: 1 uM): 0.525 °C

Target: UniProt Q9NNX1
- melting temperature shift (MBE1 concentration: 100 nM): -1.61 °C
- melting temperature shift (MBE1 concentration: 1 uM): 0.412 °C

Target: ARMT1 (UniProt Q9H993)
- melting temperature shift (MBE1 concentration: 100 nM): 0.39 °C
- melting temperature shift (MBE1 concentration: 1 uM): 0.499 °C

Target: ACOT13 (UniProt Q9NPJ3)
- melting temperature shift (MBE1 concentration: 100 nM): -1.58 °C
- melting temperature shift (MBE1 concentration: 1 uM): -0.138 °C

Target: ARHGAP35 (UniProt Q9NRY4)
- melting temperature shift (MBE1 concentration: 100 nM): -0.802 °C
- melting temperature shift (MBE1 concentration: 1 uM): -0.367 °C

Target: MCCC2 (UniProt Q9HCC0)
- melting temperature shift (MBE1 concentration: 100 nM): -1.77 °C
- melting temperature shift (MBE1 concentration: 1 uM): -0.458 °C
